Test [1] deals with T1, AtHYL1 (as used in the co-IP with 24K:mRFP) (A. thaliana) (UniProt O04492).
T1 sequence: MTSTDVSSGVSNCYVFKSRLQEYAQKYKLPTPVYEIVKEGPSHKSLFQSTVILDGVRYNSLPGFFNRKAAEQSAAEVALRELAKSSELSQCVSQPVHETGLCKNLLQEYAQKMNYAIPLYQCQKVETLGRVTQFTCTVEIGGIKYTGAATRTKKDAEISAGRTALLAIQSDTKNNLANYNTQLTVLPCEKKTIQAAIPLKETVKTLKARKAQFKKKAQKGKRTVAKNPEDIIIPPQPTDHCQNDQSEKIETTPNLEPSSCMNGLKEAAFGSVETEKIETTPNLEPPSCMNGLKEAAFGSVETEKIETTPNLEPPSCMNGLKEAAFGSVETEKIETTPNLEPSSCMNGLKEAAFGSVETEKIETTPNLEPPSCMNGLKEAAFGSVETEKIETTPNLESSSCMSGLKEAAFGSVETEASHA
Put plainly: co-IP; transitory expression in N. benthamiana leaves; beads with anti-HYL1 antibody (control: beads without the antibody); blots with anti-RFP and anti-HYL1.

Protein sequences, listed by entry. Tags and fused reporters are not part of them. Lines headed by an entry give the natural chain unless they say otherwise; changes in a name come on top.
UniProt Q9SP32: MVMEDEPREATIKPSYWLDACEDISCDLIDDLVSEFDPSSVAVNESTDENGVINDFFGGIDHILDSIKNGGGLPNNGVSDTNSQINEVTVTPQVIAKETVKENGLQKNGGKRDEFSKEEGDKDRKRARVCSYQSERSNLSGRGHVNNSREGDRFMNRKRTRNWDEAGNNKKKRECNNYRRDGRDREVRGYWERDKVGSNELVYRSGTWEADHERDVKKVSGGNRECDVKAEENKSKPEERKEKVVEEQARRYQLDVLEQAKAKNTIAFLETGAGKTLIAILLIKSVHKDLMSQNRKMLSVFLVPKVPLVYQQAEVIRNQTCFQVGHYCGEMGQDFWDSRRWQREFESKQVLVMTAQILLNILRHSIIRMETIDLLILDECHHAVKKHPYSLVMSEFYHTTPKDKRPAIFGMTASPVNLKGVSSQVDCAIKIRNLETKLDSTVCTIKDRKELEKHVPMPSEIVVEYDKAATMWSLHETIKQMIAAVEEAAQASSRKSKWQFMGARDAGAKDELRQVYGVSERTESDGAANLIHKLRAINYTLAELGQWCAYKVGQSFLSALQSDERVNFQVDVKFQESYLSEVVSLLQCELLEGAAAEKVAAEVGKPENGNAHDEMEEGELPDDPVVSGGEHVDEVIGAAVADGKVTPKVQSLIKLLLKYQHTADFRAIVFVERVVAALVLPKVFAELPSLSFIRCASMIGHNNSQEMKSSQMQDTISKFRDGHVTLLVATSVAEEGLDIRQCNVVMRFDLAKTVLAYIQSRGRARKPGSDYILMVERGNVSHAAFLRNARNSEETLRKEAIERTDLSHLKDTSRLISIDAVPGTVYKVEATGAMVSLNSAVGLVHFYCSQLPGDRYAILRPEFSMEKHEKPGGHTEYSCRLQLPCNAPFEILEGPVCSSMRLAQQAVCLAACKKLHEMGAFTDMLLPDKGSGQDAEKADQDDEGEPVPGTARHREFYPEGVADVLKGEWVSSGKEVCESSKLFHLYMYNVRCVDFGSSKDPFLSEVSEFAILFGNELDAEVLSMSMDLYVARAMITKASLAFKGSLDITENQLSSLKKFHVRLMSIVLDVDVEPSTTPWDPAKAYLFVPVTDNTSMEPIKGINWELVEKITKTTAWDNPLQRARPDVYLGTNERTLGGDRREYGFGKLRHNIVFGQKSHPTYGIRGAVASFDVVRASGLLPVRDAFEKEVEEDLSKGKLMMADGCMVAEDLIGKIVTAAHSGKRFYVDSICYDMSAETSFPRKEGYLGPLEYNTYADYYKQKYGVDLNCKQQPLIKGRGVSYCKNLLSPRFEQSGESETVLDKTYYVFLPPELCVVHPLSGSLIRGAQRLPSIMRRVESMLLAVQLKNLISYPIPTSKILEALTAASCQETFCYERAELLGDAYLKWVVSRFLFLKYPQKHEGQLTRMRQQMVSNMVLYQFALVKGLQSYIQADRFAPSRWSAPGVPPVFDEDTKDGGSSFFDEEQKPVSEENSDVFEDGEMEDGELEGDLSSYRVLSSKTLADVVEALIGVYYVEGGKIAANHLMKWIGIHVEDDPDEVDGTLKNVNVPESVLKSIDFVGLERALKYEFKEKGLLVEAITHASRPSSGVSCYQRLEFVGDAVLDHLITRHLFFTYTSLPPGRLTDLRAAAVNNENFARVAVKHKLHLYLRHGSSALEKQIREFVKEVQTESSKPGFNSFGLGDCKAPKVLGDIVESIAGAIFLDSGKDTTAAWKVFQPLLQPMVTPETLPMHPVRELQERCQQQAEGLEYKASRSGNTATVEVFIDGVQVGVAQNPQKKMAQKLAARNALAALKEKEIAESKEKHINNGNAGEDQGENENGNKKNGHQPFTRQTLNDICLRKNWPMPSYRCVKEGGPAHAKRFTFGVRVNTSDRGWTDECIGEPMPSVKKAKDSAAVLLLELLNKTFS
UniProt Q80H97: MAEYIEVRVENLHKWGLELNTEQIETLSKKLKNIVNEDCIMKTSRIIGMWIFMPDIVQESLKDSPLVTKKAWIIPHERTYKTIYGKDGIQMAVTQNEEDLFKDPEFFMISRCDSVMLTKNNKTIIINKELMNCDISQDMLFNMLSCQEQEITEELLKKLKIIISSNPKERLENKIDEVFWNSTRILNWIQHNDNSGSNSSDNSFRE

The next test deals with T2, AtSE:YFP (A. thaliana) (UniProt Q9ZVD0).
T2 sequence: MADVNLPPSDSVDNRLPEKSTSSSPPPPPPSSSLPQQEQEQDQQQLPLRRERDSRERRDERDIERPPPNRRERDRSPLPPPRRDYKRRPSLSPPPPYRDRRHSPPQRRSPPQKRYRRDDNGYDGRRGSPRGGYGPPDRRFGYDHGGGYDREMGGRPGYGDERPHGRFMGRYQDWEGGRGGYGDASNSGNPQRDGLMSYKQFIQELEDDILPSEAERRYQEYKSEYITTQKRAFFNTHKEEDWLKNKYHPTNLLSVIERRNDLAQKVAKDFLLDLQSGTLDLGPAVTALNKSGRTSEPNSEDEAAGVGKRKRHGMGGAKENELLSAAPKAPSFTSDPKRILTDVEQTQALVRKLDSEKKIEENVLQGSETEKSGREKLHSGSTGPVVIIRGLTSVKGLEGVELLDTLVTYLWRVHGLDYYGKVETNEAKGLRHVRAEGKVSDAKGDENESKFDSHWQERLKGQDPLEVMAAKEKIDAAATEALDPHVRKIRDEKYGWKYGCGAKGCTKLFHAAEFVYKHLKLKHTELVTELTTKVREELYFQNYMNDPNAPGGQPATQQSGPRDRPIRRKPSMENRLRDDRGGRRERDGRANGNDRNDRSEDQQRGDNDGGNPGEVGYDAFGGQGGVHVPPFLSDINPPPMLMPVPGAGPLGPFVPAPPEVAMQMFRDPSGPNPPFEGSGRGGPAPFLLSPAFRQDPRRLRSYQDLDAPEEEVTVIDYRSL
Put plainly: co-IP; transient expression in N. benthamiana leaves; proteins extracted from enriched nuclei in RIPA buffer, sonicated; GFP-Trap overnight at 4°C; blots with anti-RFP and anti-GFP.

The target in a further test is CFP:AtDCL1 (A. thaliana) (UniProt Q9SP32). Described as above.
The target in test [2] is T3, N-mCitrine:AtSE (SERRATE, BiFC fusion) (A. thaliana) (UniProt Q9ZVD0).
T3 sequence: T2 sequence
Put plainly: split reporter; BiFC with N- and C-terminal regions of mCitrine; coagroinfiltration of N. benthamiana leaves with Fibrillarin-mRFP and p19; confocal microscopy of epidermal cells 3-4 days post-agroinfiltration.

In test [3] the target is N-mCitrine:AtDCL1 (DICER-LIKE 1, BiFC fusion) (A. thaliana) (UniProt Q9SP32). The description is as above.
The target in test [4] is T4, N-mCitrine:AtHYL1 (HYPONASTIC LEAVES 1, BiFC fusion) (A. thaliana) (UniProt O04492).
T4 sequence: T1 sequence
The test is described as above.

These are yes or no findings as the source states them, for the method shown. In cells and extracts the contact can be indirect. For part of these data: Binding calls can cover weak binding; strength is not graded here. For part of these data: Sequences can lack the tags named with a protein.

Among the data in PMC11218507 are binding values, retold here.

In the case of 24K:mRFP (from UniProt Q80H97), the binding entry in test [1] is on record as “binds”; in the test with AtSE:YFP (A. thaliana) it was “binds”; in the test with CFP:AtDCL1 (A. thaliana), “no binding”.

For “C-mCitrine:24K (citrus psorosis virus 24K protein, BiFC fusion) (from UniProt Q80H97)”, the binding result in test [2] was “binds”; in test [3], “no binding”; in test [4], “binds”.
